These are yes or no findings as the source states them, for the method shown. Some entries that bind do so weakly or less than the wild type. Tags and fused reporters may be left off the sequences shown.

Consider four molecules from article doi:10.1101/2021.01.21.427698.

Holding throughout (test): two-tag affinity co-purification of co-expressed proteins
Assay [1] has as its target T1, full-length human SEPT7 with a TEV-cleavable C-terminal Strep-tag-II (as in the human hexamers) (human), Q16181.
T1 chain: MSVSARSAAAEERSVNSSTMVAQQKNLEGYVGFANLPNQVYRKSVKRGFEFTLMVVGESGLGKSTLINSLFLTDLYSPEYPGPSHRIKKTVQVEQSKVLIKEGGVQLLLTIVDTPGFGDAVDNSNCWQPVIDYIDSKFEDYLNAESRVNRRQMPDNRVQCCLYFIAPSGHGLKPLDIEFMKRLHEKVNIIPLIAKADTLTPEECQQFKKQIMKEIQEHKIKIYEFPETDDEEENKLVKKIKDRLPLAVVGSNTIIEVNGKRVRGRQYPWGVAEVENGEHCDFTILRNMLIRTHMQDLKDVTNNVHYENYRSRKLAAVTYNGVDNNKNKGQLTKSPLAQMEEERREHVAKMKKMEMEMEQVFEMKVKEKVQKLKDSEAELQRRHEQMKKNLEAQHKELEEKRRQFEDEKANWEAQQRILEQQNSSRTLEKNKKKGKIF
The settings on record: remark: other sources report otherwise.

Assay [2] deals with T2, human SEPT9_i3 with a noncleavable C-terminal Strep-tag-II (as in the mammalian octamers-9_i3) (human) (UniProt Q9UHD8).
T2 sequence: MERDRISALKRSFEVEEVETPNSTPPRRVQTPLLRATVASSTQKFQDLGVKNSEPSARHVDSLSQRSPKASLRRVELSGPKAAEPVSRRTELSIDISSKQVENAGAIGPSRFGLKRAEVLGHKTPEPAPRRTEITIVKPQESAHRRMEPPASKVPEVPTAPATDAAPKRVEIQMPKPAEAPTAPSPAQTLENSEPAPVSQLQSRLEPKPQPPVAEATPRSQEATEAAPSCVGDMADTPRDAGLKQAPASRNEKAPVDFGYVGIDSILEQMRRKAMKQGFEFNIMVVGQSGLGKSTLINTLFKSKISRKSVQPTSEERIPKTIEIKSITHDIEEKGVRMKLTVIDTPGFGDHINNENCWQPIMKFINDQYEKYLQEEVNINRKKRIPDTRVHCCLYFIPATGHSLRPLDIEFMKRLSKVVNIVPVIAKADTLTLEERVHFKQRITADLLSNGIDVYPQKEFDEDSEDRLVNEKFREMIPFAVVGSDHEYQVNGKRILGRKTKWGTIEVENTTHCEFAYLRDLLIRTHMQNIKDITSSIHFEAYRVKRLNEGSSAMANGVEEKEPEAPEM

In assay [3] the target is T3, mouse SEPT2 with a TEV-cleavable N-terminal His6-tag (mouse) (UniProt P42208).
T3 sequence: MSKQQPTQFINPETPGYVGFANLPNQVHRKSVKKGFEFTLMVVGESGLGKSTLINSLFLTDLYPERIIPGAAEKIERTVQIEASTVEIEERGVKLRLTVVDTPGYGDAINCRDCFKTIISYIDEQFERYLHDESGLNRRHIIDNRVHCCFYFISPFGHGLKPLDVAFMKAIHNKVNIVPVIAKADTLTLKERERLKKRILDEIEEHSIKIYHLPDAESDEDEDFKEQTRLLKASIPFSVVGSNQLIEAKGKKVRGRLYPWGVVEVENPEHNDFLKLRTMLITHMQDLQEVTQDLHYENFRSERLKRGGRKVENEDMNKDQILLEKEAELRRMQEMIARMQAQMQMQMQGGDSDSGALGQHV

The target of assay [4] is T4, human SEPT2 with a TEV-cleavable N-terminal His6-tag (human), Q15019.
T4 chain: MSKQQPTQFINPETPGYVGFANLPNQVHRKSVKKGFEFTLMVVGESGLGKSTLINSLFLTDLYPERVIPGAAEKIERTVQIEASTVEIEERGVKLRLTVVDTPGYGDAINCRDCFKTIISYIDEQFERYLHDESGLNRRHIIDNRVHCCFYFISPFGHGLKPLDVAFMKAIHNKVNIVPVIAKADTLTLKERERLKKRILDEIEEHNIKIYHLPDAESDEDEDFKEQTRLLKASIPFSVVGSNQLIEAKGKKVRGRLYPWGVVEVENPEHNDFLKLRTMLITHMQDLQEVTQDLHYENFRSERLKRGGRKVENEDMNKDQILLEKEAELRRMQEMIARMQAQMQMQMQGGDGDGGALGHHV
The settings on record: remark: other sources report otherwise.

Assay [5] has as its target T5, human SEPT2 with a TEV-cleavable N-terminal His6-tag and its C-terminus fused to msfGFP (human), Q15019.
T5 chain: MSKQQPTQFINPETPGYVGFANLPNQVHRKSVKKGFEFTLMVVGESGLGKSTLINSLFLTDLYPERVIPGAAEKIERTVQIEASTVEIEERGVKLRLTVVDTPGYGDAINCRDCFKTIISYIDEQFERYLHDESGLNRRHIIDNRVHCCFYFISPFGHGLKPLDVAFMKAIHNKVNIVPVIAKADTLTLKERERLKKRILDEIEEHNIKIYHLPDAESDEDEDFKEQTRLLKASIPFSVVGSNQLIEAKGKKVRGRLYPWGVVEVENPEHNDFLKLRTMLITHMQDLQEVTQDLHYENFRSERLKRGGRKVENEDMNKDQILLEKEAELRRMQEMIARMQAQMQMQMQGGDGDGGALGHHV
The settings on record: remark: other sources report otherwise.

B1: human SEPT2 with a TEV-cleavable N-terminal His6-tag and its C-terminus fused to msfGFP, Q15019 1-361 (protein)
chain: MSKQQPTQFINPETPGYVGFANLPNQVHRKSVKKGFEFTLMVVGESGLGKSTLINSLFLTDLYPERVIPGAAEKIERTVQIEASTVEIEERGVKLRLTVVDTPGYGDAINCRDCFKTIISYIDEQFERYLHDESGLNRRHIIDNRVHCCFYFISPFGHGLKPLDVAFMKAIHNKVNIVPVIAKADTLTLKERERLKKRILDEIEEHNIKIYHLPDAESDEDEDFKEQTRLLKASIPFSVVGSNQLIEAKGKKVRGRLYPWGVVEVENPEHNDFLKLRTMLITHMQDLQEVTQDLHYENFRSERLKRGGRKVENEDMNKDQILLEKEAELRRMQEMIARMQAQMQMQMQGGDGDGGALGHHV
As for B1, the binding entry in assay [1] is “binds”.

B2: mouse SEPT2 with a TEV-cleavable N-terminal His6-tag (protein, UniProt P42208 1-361)
chain: MSKQQPTQFINPETPGYVGFANLPNQVHRKSVKKGFEFTLMVVGESGLGKSTLINSLFLTDLYPERIIPGAAEKIERTVQIEASTVEIEERGVKLRLTVVDTPGYGDAINCRDCFKTIISYIDEQFERYLHDESGLNRRHIIDNRVHCCFYFISPFGHGLKPLDVAFMKAIHNKVNIVPVIAKADTLTLKERERLKKRILDEIEEHSIKIYHLPDAESDEDEDFKEQTRLLKASIPFSVVGSNQLIEAKGKKVRGRLYPWGVVEVENPEHNDFLKLRTMLITHMQDLQEVTQDLHYENFRSERLKRGGRKVENEDMNKDQILLEKEAELRRMQEMIARMQAQMQMQMQGGDSDSGALGQHV
For the molecule B2, the binding result in assay [2] is reported as “binds”.

B3: human SEPT7ΔN19 (untagged, as in the mammalian octamers-9_i3) (domain or fragment, UniProt Q16181 20-437)
chain: MVAQQKNLEGYVGFANLPNQVYRKSVKRGFEFTLMVVGESGLGKSTLINSLFLTDLYSPEYPGPSHRIKKTVQVEQSKVLIKEGGVQLLLTIVDTPGFGDAVDNSNCWQPVIDYIDSKFEDYLNAESRVNRRQMPDNRVQCCLYFIAPSGHGLKPLDIEFMKRLHEKVNIIPLIAKADTLTPEECQQFKKQIMKEIQEHKIKIYEFPETDDEEENKLVKKIKDRLPLAVVGSNTIIEVNGKRVRGRQYPWGVAEVENGEHCDFTILRNMLIRTHMQDLKDVTNNVHYENYRSRKLAAVTYNGVDNNKNKGQLTKSPLAQMEEERREHVAKMKKMEMEMEQVFEMKVKEKVQKLKDSEAELQRRHEQMKKNLEAQHKELEEKRRQFEDEKANWEAQQRILEQQNSSRTLEKNKKKGKIF
Consider B3, for which the binding result in assay [3] and in assay [2] was “binds” throughout.

B4: full-length human SEPT7 (untagged, as in the octamers), Q16181 1-437 (natural protein)
chain: MSVSARSAAAEERSVNSSTMVAQQKNLEGYVGFANLPNQVYRKSVKRGFEFTLMVVGESGLGKSTLINSLFLTDLYSPEYPGPSHRIKKTVQVEQSKVLIKEGGVQLLLTIVDTPGFGDAVDNSNCWQPVIDYIDSKFEDYLNAESRVNRRQMPDNRVQCCLYFIAPSGHGLKPLDIEFMKRLHEKVNIIPLIAKADTLTPEECQQFKKQIMKEIQEHKIKIYEFPETDDEEENKLVKKIKDRLPLAVVGSNTIIEVNGKRVRGRQYPWGVAEVENGEHCDFTILRNMLIRTHMQDLKDVTNNVHYENYRSRKLAAVTYNGVDNNKNKGQLTKSPLAQMEEERREHVAKMKKMEMEMEQVFEMKVKEKVQKLKDSEAELQRRHEQMKKNLEAQHKELEEKRRQFEDEKANWEAQQRILEQQNSSRTLEKNKKKGKIF
For B4, the binding result in assay [4] and in assay [5] was “binds” throughout.
